# PMC7819943, “Rice protein-binding microarrays: a tool to detect cis-acting elements near promoter regions in rice”
# Sequences of proteins named here, by UniProt entry; tags and fusion partners are left off.
# UniProt Q0JBA9, entry or part of it: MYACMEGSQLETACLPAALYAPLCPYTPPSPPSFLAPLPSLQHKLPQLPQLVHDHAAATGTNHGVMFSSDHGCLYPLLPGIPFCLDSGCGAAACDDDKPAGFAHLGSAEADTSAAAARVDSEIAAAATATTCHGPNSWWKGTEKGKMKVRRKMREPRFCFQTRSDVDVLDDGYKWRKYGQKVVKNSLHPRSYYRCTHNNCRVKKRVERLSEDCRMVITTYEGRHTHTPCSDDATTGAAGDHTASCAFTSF
# Some of the results follow.
# Biological target: OsWRKY34 (Oryza sativa, UniProt Q0JBA9 1-250)
# Assay: protein-binding microarray (RPBM); PBS, 2% BSA, 51.3 ng/ul salmon testes DNA, 50 uM zinc acetate, 200 nM TF, 25 C, 1 h; high values mean tight binding
# Details: protein: recombinant; tags: N-terminal polyhistidine and DsRed monomer fusion (pET32a); label: CyDye5-dUTP incorporated in the synthesized complementary strand; 3' TTTTT single-stranded linker to array surface; dsDNA, one strand shown
# Procedure, shortened: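 Ni–NTA purification followed expression in E. coli BL21-CodonPlus of transcription factors fused N-terminally to a polyhistidine tag and DsRed. At 200 nM in PBS with 2% BSA, salmon testes DNA and 50 µM zinc acetate, the protein was incubated for 1 h at 25 °C with a custom Agilent array that had been primer-extended with Cy5-dUTP and blocked with 2% BSA. After washing, the array was read on an Axon 4000B scanner. The binding signal is per-feature fluorescence intensity in arbitrary units.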
row,Sequence,binding signal
1,CATTCGTTTGTTTTGCTTGCATGGAGTTTTGGATTAACACCGGAGTCACCTAGTGCAG,10200 fluorescence intensity (a.u.)
2,GTTGTTGACTTTTTAAAATTTGTTTGACCATTCATCTTATCGGAGTCACCTAGTGCAG,23100 fluorescence intensity (a.u.)
3,GGGCTTCCCGTGGACCGCGCCCACCCGCGCCGGCCTCACGCGGAGTCACCTAGTGCAG,8220 fluorescence intensity (a.u.)
4,GTTTTTTCTTCTTTTTTTTTTACGGGACCACTTTTTTTTTCGGAGTCACCTAGTGCAG,13400 fluorescence intensity (a.u.)
5,TGCATGAAACACTTAATCTTTATCTTCATCTTCATTTTCACGGAGTCACCTAGTGCAG,9030 fluorescence intensity (a.u.)
6,GTGGGTACTTAGTGTTAGTGTTGTCGTGCGTTATCCATGTCGGAGTCACCTAGTGCAG,13900 fluorescence intensity (a.u.)
7,ACAAGTCCAAAACACCTTTCTTTGACTTCACACTATTCTTCGGAGTCACCTAGTGCAG,12500 fluorescence intensity (a.u.)
8,TATTCCTGTCAGAATCCTATGTTTTTCTTATTCCTCCGTTCGGAGTCACCTAGTGCAG,9210 fluorescence intensity (a.u.)
9,CATTCTTGTACTTCTTCTGTACAGTTCCTTTTGGTTAATTCGGAGTCACCTAGTGCAG,10700 fluorescence intensity (a.u.)
10,TTGGACTCTTTTCTCCATCTCTCATTTTCACACTGGGTCCCGGAGTCACCTAGTGCAG,9210 fluorescence intensity (a.u.)
11,TGAAACAAAATTGAGGTTGTTGGGAGGGTTTCTGATCATCCGGAGTCACCTAGTGCAG,10600 fluorescence intensity (a.u.)
12,CACGTCGGTTGTGCTGGTAGTTGCCACTGTCCTCATCGTCCGGAGTCACCTAGTGCAG,10100 fluorescence intensity (a.u.)
13,ACAGGCCCAGTAGCACTCTTTCTGTCACTCACTCACTCACCGGAGTCACCTAGTGCAG,9250 fluorescence intensity (a.u.)
14,GACAAGCGTGGTGAAGTGGTGGGGAGTTGCGGGAGGGAGGCGGAGTCACCTAGTGCAG,14600 fluorescence intensity (a.u.)
15,CAAACGGGTCCGCGCCGTTCCTGCCTCGCTGCCGCCTGCCCGGAGTCACCTAGTGCAG,10100 fluorescence intensity (a.u.)
16,TGGATTTATTTATTCTTGTTCTTTTTCTCGAAAATTTCCACGGAGTCACCTAGTGCAG,8640 fluorescence intensity (a.u.)
17,CATCGAATCATCGCTCGACTTTGGTTATCAGTCTTTTTTTCGGAGTCACCTAGTGCAG,10200 fluorescence intensity (a.u.)
18,CCTTGCTGCGGCGAACCGCAGCCCACCGCTACAGTGCTGTCGGAGTCACCTAGTGCAG,8020 fluorescence intensity (a.u.)
19,CCACCATGGTCTCGCTCATTCTGTTTGCTTCACCTACTCTCGGAGTCACCTAGTGCAG,14500 fluorescence intensity (a.u.)
20,AGTTATATATATAGTGGGGAGTTACCTTTGAACCGTGCTCCGGAGTCACCTAGTGCAG,9050 fluorescence intensity (a.u.)
21,TGTGGGGTCATGGATTTGAATGTAAAAATGTTAACACTTGCGGAGTCACCTAGTGCAG,10100 fluorescence intensity (a.u.)

# Shown with tabs: part of the list above.
row	Sequence	binding signal
10	TTGGACTCTTTTCTCCATCTCTCATTTTCACACTGGGTCCCGGAGTCACCTAGTGCAG	9210 fluorescence intensity (a.u.)
11	TGAAACAAAATTGAGGTTGTTGGGAGGGTTTCTGATCATCCGGAGTCACCTAGTGCAG	10600 fluorescence intensity (a.u.)
12	CACGTCGGTTGTGCTGGTAGTTGCCACTGTCCTCATCGTCCGGAGTCACCTAGTGCAG	10100 fluorescence intensity (a.u.)
13	ACAGGCCCAGTAGCACTCTTTCTGTCACTCACTCACTCACCGGAGTCACCTAGTGCAG	9250 fluorescence intensity (a.u.)
14	GACAAGCGTGGTGAAGTGGTGGGGAGTTGCGGGAGGGAGGCGGAGTCACCTAGTGCAG	14600 fluorescence intensity (a.u.)
15	CAAACGGGTCCGCGCCGTTCCTGCCTCGCTGCCGCCTGCCCGGAGTCACCTAGTGCAG	10100 fluorescence intensity (a.u.)
16	TGGATTTATTTATTCTTGTTCTTTTTCTCGAAAATTTCCACGGAGTCACCTAGTGCAG	8640 fluorescence intensity (a.u.)
17	CATCGAATCATCGCTCGACTTTGGTTATCAGTCTTTTTTTCGGAGTCACCTAGTGCAG	10200 fluorescence intensity (a.u.)
18	CCTTGCTGCGGCGAACCGCAGCCCACCGCTACAGTGCTGTCGGAGTCACCTAGTGCAG	8020 fluorescence intensity (a.u.)
19	CCACCATGGTCTCGCTCATTCTGTTTGCTTCACCTACTCTCGGAGTCACCTAGTGCAG	14500 fluorescence intensity (a.u.)
20	AGTTATATATATAGTGGGGAGTTACCTTTGAACCGTGCTCCGGAGTCACCTAGTGCAG	9050 fluorescence intensity (a.u.)
21	TGTGGGGTCATGGATTTGAATGTAAAAATGTTAACACTTGCGGAGTCACCTAGTGCAG	10100 fluorescence intensity (a.u.)

# More entries.

row,Sequence,binding signal
1,AACTATAATTAATAGTAACAAAGAGGGAGGGGAGGGTTCGCGGAGTCACCTAGTGCAG,8820 fluorescence intensity (a.u.)
2,CCGGAGCTCGCCCGTCATCGTCGCCCACCGAGCCACTTCACGGAGTCACCTAGTGCAG,8140 fluorescence intensity (a.u.)
3,GATGAATCTATTCGCATCACTCGTTCGTCAATTTCAGCTGCGGAGTCACCTAGTGCAG,8800 fluorescence intensity (a.u.)
4,TTTCACGAGTTTTCAACACTTAGCTCATTTTCACCGATATCGGAGTCACCTAGTGCAG,8170 fluorescence intensity (a.u.)
5,TCCTAACCCTTCATTCATTTCCCAATCCCAATCCCACCCTCGGAGTCACCTAGTGCAG,8220 fluorescence intensity (a.u.)
6,GACCAGATTGTTTTGGAGGCTTGCTTTCTTCATCGTTATGCGGAGTCACCTAGTGCAG,9600 fluorescence intensity (a.u.)
7,AGGAGGGCGGAGGAGGTGGTGGTGGTGGTGGTGGAGAGAGCGGAGTCACCTAGTGCAG,25700 fluorescence intensity (a.u.)
8,CCTCCTTTTGACTCAGCAAGTCAATTGTGGTCAACCTGCCCGGAGTCACCTAGTGCAG,8970 fluorescence intensity (a.u.)
9,TCCCTGCTTATTTCATTTTCCAGGAGGCTAAAACATGCTTCGGAGTCACCTAGTGCAG,8270 fluorescence intensity (a.u.)
10,ATCTTTCTCTCCTCCTCTCTTCTAGCAATCGGTCGTTTCCCGGAGTCACCTAGTGCAG,8390 fluorescence intensity (a.u.)
11,GAGAGTCGACAACCGTTGATCTGTCCATCGACGGCGCGGGCGGAGTCACCTAGTGCAG,8050 fluorescence intensity (a.u.)
12,ATGTATAACACTGTTGACTTTTTAAGATATATTTGATCATCGGAGTCACCTAGTGCAG,15900 fluorescence intensity (a.u.)
13,GGACAACATCTTCGTGGCTTCCCTGTCCACTCTTTCCTGCCGGAGTCACCTAGTGCAG,10900 fluorescence intensity (a.u.)
14,CGCCGTCCGCCGCCTTGTCGGCTCGCCGGCGAGCCGTCTCCGGAGTCACCTAGTGCAG,10200 fluorescence intensity (a.u.)
15,AGATACACTGTGTTGCTTGCGTTCTTGTGCACTCTTGTATCGGAGTCACCTAGTGCAG,9510 fluorescence intensity (a.u.)
16,TGGTGTGTTTTTCCCATTCTGACCCTTGTGAGGGCACTATCGGAGTCACCTAGTGCAG,8820 fluorescence intensity (a.u.)
17,TGGCCTTTGTGGTTAATGTGTTGTTTCATATCTCTTTCTCCGGAGTCACCTAGTGCAG,10500 fluorescence intensity (a.u.)
18,GCGGTGGTGGCCGTGGTGGTGGAGGAGGTGGAGGCGCTGCCGGAGTCACCTAGTGCAG,10100 fluorescence intensity (a.u.)
19,CTGCAGCTTCCTACCTCCATCCATCCATTCATCTTCTTCTCGGAGTCACCTAGTGCAG,8360 fluorescence intensity (a.u.)
20,CTATTCCTAGTTTCTATCACTCCTACATCGTAAGTTGTCACGGAGTCACCTAGTGCAG,8520 fluorescence intensity (a.u.)
21,ACTGCTTTGTTCTATTTGATTATTTTTTTACTCATCAGATCGGAGTCACCTAGTGCAG,15900 fluorescence intensity (a.u.)
